In patent US7432227B2, “6-alkyl or alkenyl-4-aminopicolinates and their use as herbicides” (Dow AgroSciences LLC, priority 2003, dated 2008):
“And” between values parts separate entries of the source, which are not always exact repeats. Equal values may be shown once. The name of at least one read-out is uncertain.

Columns and labels:
[1] = tested on: Cocklebur (Xanthium strumarium); assay: Postemergence herbicidal activity, Cocklebur; assay type: in vivo; details: rate 254 ppm; visual score after 2 weeks, 0 = no injury, 100 = complete kill
Description: (§1) Seeds of the desired test plant species were planted in Grace-Sierra MetroMix® 306 planting mixture, which typically has a pH of 6.0 to 6.8 and an organic matter content of about 30 percent, in plastic pots with a surface area of 64 square centimeters. When required to ensure good germination and healthy plants, a fungicide treatment and/or other chemical or physical treatment was applied. The plants were grown for 7-21 days in a greenhouse with an approximate 15 hr photoperiod which was maintained at about 23-29° C. during the day and 22-28° C. during the night. Nutrients and water were added on a regular basis and supplemental lighting was provided with overhead metal halide 1000-Watt lamps as necessary. The plants were employed for testing when they reached the first or second true leaf stage. A weighed amount, determined by the highest rate to be tested, of each test compound was placed in a 20 mL glass vial and was dissolved in 4 mL of a 97:3 v/v (volume/volume) mixture of acetone and dimethyl sulfoxide (DMSO) to obtain concentrated stock solutions. […] After 2 weeks the condition of the test plants as compared with that of the untreated plants was determined visually and scored on a scale of 0 to 100 percent where 0 corresponds to no injury and 100 corresponds to complete kill.

[2] = tested on: Lambsquarter (Chenopodium album); assay: Postemergence herbicidal activity, Lambsquarter; assay type: in vivo; details: rate 254 ppm; visual score after 2 weeks, 0 = no injury, 100 = complete kill
Description: as §1

COC(=O)c1nc(C)cc(N)c1Cl [Compound 13, Methyl 4-amino-3-chloro-6-methylpyridine-2-carboxylate]
Post-emergent % control XANST [1]: 40% and 70%
Post-emergent % control CHEAL [2]: 75%
